Laboratory results from publication PMC5882171.
These are yes or no findings as the source states them, for the method shown. Some results given as binding are weak or reduced against the parent protein; the word gives no strength. Sequences can lack the tags named with a protein. Values belong to the molecule of their own block, whether it stands above or below them.

The chains behind the UniProt entries cited, without tags or fusion partners.
UniProt P35189: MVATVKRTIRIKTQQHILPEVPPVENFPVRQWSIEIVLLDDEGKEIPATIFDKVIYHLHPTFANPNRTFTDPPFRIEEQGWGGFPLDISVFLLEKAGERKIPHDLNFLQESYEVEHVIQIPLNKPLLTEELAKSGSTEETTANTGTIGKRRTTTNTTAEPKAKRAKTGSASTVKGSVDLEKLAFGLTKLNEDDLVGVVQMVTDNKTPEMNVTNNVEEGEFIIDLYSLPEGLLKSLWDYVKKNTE

Columns and labels:
[1] = biological target: T1, Tfg1 with C-terminal FLAG and TAP tags (yeast TFIIF subunit) (yeast) (UniProt P41895); assay: affinity co-purification (IgG resin) with SDS-PAGE; subunits co-expressed from a single baculovirus in Hi5 or Sf9 cells; lysate loaded on IgG resin, washed with high salt (1 M KCl) and low salt buffer, recovered by TEV protease digestion for 1 hour at room temperature; purified complex on SDS-PAGE
T1 sequence: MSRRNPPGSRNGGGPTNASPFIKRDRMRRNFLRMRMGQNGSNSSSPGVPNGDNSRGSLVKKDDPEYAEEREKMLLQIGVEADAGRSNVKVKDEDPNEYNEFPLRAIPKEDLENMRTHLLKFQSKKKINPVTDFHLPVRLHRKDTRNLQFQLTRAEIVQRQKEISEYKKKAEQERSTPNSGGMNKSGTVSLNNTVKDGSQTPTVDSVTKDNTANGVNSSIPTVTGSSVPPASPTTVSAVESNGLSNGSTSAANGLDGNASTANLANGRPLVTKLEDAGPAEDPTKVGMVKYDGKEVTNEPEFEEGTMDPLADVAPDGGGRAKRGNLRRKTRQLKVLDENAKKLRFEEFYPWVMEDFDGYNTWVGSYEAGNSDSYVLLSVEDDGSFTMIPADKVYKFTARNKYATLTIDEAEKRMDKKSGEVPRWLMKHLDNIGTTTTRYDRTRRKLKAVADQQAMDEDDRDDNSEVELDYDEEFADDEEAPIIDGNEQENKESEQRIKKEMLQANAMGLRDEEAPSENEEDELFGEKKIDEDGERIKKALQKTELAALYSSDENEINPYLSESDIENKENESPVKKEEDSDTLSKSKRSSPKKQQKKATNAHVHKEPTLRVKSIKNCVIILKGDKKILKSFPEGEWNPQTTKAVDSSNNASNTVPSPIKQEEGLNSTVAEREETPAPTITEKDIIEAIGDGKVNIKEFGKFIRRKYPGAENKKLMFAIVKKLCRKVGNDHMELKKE

[2] = biological target: T2, yeast Cycline C with C-terminal 10xhistidine tag (yeast) (UniProt P47821); assay: affinity co-purification (Ni-NTA) with SDS-PAGE; subunits co-expressed from a single baculovirus in Hi5 or Sf9 cells; lysate in 50 mM Hepes-KOH pH 7.6, 400 mM KCl loaded on Ni-NTA, washed with 1 M KCl and with 100 mM potassium acetate buffer, eluted with 300 mM imidazole; purified complex on SDS-PAGE (purified Head module also blotted with anti-His, anti-Med18 and anti-Med11 as a standard)
T2 sequence: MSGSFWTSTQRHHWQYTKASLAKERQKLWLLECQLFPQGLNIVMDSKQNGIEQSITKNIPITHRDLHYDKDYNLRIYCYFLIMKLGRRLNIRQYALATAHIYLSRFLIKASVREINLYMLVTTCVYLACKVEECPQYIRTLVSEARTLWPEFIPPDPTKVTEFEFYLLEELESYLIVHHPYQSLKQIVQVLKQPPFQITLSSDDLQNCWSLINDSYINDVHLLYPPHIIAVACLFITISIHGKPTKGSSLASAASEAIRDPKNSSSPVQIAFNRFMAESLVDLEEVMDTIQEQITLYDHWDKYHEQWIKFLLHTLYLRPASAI

[3] = biological target: T3, Tfb1-10xHis tagged (yeast core TFIIH subunit) (yeast) (UniProt P32776); assay: as above
T3 sequence: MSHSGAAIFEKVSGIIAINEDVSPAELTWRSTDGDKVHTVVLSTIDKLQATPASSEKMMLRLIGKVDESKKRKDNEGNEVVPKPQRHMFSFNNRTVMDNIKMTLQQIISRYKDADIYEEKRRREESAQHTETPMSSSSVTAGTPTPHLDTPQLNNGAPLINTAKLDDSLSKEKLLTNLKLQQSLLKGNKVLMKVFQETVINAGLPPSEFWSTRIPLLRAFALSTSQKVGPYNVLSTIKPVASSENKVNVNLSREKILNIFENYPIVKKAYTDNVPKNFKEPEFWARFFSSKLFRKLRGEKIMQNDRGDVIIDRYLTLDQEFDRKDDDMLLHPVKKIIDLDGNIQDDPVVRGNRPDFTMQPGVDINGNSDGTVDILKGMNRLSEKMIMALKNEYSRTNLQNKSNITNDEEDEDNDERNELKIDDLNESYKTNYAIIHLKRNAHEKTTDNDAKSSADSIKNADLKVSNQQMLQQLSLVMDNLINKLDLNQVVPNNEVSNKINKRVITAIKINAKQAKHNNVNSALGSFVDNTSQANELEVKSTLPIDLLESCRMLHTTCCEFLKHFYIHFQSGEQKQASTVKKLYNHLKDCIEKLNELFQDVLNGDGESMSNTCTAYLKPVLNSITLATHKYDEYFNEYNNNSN

[4] = biological target: T4, Tfb1-10xHis tagged (yeast core TFIIH subunit) (yeast), P32776; assay: as above; details: remark: other sources report otherwise
T4 chain: T3 sequence

binding [1]: binds
Molecule: Tfg3 (yeast TFIIF subunit) (from UniProt P35189 1-244)

binding [2]: binds
B1: yeast CDK8 (protein, UniProt P39073 1-555)
chain: MYNGKDRAQNSYQPMYQRPMQVQGQQQAQSFVGKKNTIGSVHGKAPMLMANNDVFTIGPYRARKDRMRVSVLEKYEVIGYIAAGTYGKVYKAKRQINSGTNSANGSSLNGTNAKIPQFDSTQPKSSSSMDMQANTNALRRNLLKDEGVTPGRIRTTREDVSPHYNSQKQTLIKKPLTVFYAIKKFKTEKDGVEQLHYTGISQSACREMALCRELHNKHLTTLVEIFLERKCVHMVYEYAEHDLLQIIHFHSHPEKRMIPPRMVRSIMWQLLDGVSYLHQNWVLHRDLKPANIMVTIDGCVKIGDLGLARKFHNMLQTLYTGDKVVVTIWYRAPELLLGARHYTPAVDLWSVGCIFAELIGLQPIFKGEEAKLDSKKTVPFQVNQLQRILEVLGTPDQKIWPYLEKYPEYDQITKFPKYRDNLATWYHSAGGRDKHALSLLYHLLNYDPIKRIDAFNALEHKYFTESDIPVSENVFEGLTYKYPARRIHTNDNDIMNLGSRTKNNTQASGITAGAAANALGGLGVNRRILAAAAAAAAAVSGNNASDEPSRKKNRR

binding [3]: binds
B6: Tfb2 (yeast core TFIIH subunit) (protein, UniProt Q02939 1-513)
chain: MSDYSLKHSVTQYLEEIPQQVQNRLYTSPATCLAIYRILPPLAKFFIMAMVFNENEVPLLDLDKWVNSNGKLQFQNAIKSMKSLHLLIPNKSSGTLMINLNPTFKISLRNALTGGEVQNSFGVVVEENVVSLDLLDEYSANKWETILHFMVGTPLAKIPSEKVLNLLKHSKLMEEVNSTGEFKITNEGFQFLLQEINSQLWTLLLQYLKMIETSKMDLVDVLHFIFMLGALEVGKAYKIDALSETQRIMLQDMRDYGLVFQKHSNDSIFYPTKLALMLTSDTKTIRSASNAMDSVLRQNREEPSVNEDGANGKSTTDITTSDDLNKAGLKNQDIPDGSLIVETNFKIYSYSNSPLQIAVLSLFVHLKARFVNMVLGQITRESIRRALTNGITADQIIAYLETHAHPQMRRLAEEKLEKKLELDPNCKEPLQVLPPTVVDQIRLWQLELDRVITYEGSLYSDFETSQEYNLLSKYAQDIGVLLWKDDKKKKFFISKEGNSQVLDFAKRKLKKKQ

binding [3]: binds
B7: Rad3 (yeast core TFIIH subunit) (protein, UniProt P06839 1-778)
chain: MKFYIDDLPVLFPYPKIYPEQYNYMCDIKKTLDVGGNSILEMPSGTGKTVSLLSLTIAYQMHYPEHRKIIYCSRTMSEIEKALVELENLMDYRTKELGYQEDFRGLGLTSRKNLCLHPEVSKERKGTVVDEKCRRMTNGQAKRKLEEDPEANVELCEYHENLYNIEVEDYLPKGVFSFEKLLKYCEEKTLCPYFIVRRMISLCNIIIYSYHYLLDPKIAERVSNEVSKDSIVIFDEAHNIDNVCIESLSLDLTTDALRRATRGANALDERISEVRKVDSQKLQDEYEKLVQGLHSADILTDQEEPFVETPVLPQDLLTEAIPGNIRRAEHFVSFLKRLIEYLKTRMKVLHVISETPKSFLQHLKQLTFIERKPLRFCSERLSLLVRTLEVTEVEDFTALKDIATFATLISTYEEGFLLIIEPYEIENAAVPNPIMRFTCLDASIAIKPVFERFSSVIITSGTISPLDMYPRMLNFKTVLQKSYAMTLAKKSFLPMIITKGSDQVAISSRFEIRNDPSIVRNYGSMLVEFAKITPDGMVVFFPSYLYMESIVSMWQTMGILDEVWKHKLILVETPDAQETSLALETYRKACSNGRGAILLSVARGKVSEGIDFDHQYGRTVLMIGIPFQYTESRILKARLEFMRENYRIRENDFLSFDAMRHAAQCLGRVLRGKDDYGVMVLADRRFSRKRSQLPKWIAQGLSDADLNLSTDMAISNTKQFLRTMAQPTDPKDQEGVSVWSYEDLIKHQNSRKDQGGFIENENKEGEQDEDEDEDIEMQ

More lines, now with the values behind:

B2: Ssl1 (yeast core TFIIH subunit) (protein, UniProt Q04673 1-461)
chain: MAPVVISESEEDEDRVAITRRTKRQVHFDGEGDDRVDQQQQQHSSSHRDRDKHVQRKKKKRLSNRNLQGSNGGYAWEDEIKRSWDLVKVDDEGDMASLVASIVEARKKRTAKKNITPYQRGIIRSLILTLDCSEAMLEKDLRPNRHAMIIQYAIDFVHEFFDQNPISQMGIIIMRNGLAQLVSQVSGNPQDHIDALKSIRKQEPKGNPSLQNALEMARGLLLPVPAHCTREVLIVFGSLSTTDPGDIHQTIDSLVSEKIRVKVLGLSAQVAICKELCKATNYGDESFYKILLDETHLKELFNEAVTPLPVNKINKGFTLVKMGFPTRIFEDTPTFCSCHSKLVYGGYFCPNCHSKVCSLPTVCPCCDLMLILSTHLARSYHHLMPLKTFAEVPTTEKFRSEDCFSCQSRFPILKNHKNGKLLTSSRYRCEDCKQEFCVDCDVFIHEILHNCPGCESKPVIT
binding [3]: binds

B3: Tfb4 (yeast core TFIIH subunit) (protein, UniProt Q12004 1-338)
chain: MDAISDPTFKHARSRKQVTEESPSLLTVIIEIAPKLWTTFDEEGNEKGSIIKVLEALIVFLNAHLAFNSANKVAVIAAYSQGIKYLYPESTSALKASESENKTRSDLKIINSDMYRRFRNVDETLVEEIYKLFELEKKQIEQNSQRSTLAGAMSAGLTYVNRISKESVTTSLKSRLLVLTCGSGSSKDEIFQYIPIMNCIFSATKMKCPIDVVKIGGSKESTFLQQTTDATNGVYLHVESTEGLIQYLATAMFIDPSLRPIIVKPNHGSVDFRTSCYLTGRVVAVGFICSVCLCVLSIIPPGNKCPACDSQFDEHVIAKLKRKPVVPRLKAKKKVTKP
binding [3]: binds

B4: Tfb5 (yeast core TFIIH subunit), Q3E7C1 1-72 (protein)
chain: MARARKGALVQCDPSIKALILQIDAKMSDIVLEELDDTHLLVNPSKVEFVKHELNRLLSKNIYNPMDEEENQ
binding [4]: binds

B5: Tfg2 (yeast TFIIF subunit) (protein, UniProt P41896 1-400)
chain: MSSGSAGAPALSNNSTNSVAKEKSGNISGDEYLSQEEEVFDGNDIENNETKVYEESLDLDLERSNRQVWLVRLPMFLAEKWRDRNNLHGQELGKIRINKDGSKITLLLNENDNDSIPHEYDLELTKKVVENEYVFTEQNLKKYQQRKKELEADPEKQRQAYLKKQEREEELKKKQQQQKRRNNRKKFNHRVMTDRDGRDRYIPYVKTIPKKTAIVGTVCHECQVMPSMNDPNYHKIVEQRRNIVKLNNKERITTLDETVGVTMSHTGMSMRSDNSNFLKVGREKAKSNIKSIRMPKKEILDYLFKLFDEYDYWSLKGLKERTRQPEAHLKECLDKVATLVKKGPYAFKYTLRPEYKKLKEEERKATLGELADEQTGSAGDNAQGDAEADLEDEIEMEDVV
binding [1]: binds
